PubChem BioAssay AID1259424 – University of Nebraska Medical Center – 2018

Aim: 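Seek colon cancer survival genes behaving like KSR1, using a six-gene signature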 (primary screen)
Cell system: human HCT116 colon cancer cells
Knock-down reagent: siRNA pool against human genes, 50 nM
Measurement: 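Log2 levels of six mRNAs (branched-DNA multiplex), adjusted by two reference genes and the non-targeting median, then scored against the average KSR1 knockdown pattern as Pearson r and euclidean distance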
Reading the numbers: mean correlation with KSR1 profile: higher = expression change more like KSR1 knockdown; mean distance from KSR1 profile: higher = expression change less like KSR1 knockdown
The whole screen tested about 14,000 reagents; this is a part drawn at random. 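Higher correlation or smaller distance means closer resemblance to KSR1 loss; control wells, including KSR1 knockdowns, recur on many plates.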 Not all columns of the deposit are shown. Not given: the time to read-out.

{"Gene": "GDF2 (growth differentiation factor 2)", "mean correlation with KSR1 profile": -0.259, "mean distance from KSR1 profile": 2.42}
{"Gene": "MNMIP1 (manchette microtubule inner protein 1)", "mean correlation with KSR1 profile": 0.781, "mean distance from KSR1 profile": 1.05}
{"Gene": "MGARP (mitochondria localized glutamic acid rich protein)", "mean correlation with KSR1 profile": -0.0168, "mean distance from KSR1 profile": 1.89}
{"Gene": "MRPS7 (mitochondrial ribosomal protein S7)", "mean correlation with KSR1 profile": -0.369, "mean distance from KSR1 profile": 4.09}
{"Gene": "SOCS4 (suppressor of cytokine signaling 4)", "mean correlation with KSR1 profile": -0.173, "mean distance from KSR1 profile": 1.67}
{"Gene": "CPA4 (carboxypeptidase A4)", "mean correlation with KSR1 profile": -0.0694, "mean distance from KSR1 profile": 3.07}
{"Gene": "PCDH8 (protocadherin 8)", "mean correlation with KSR1 profile": 0.382, "mean distance from KSR1 profile": 2.15}
{"Gene": "SEMA6D (semaphorin 6D)", "mean correlation with KSR1 profile": 0.622, "mean distance from KSR1 profile": 1.1}
{"Gene": "HGF (hepatocyte growth factor)", "mean correlation with KSR1 profile": -0.594, "mean distance from KSR1 profile": 1.34}
{"Gene": "ZMAT1 (zinc finger matrin-type 1)", "mean correlation with KSR1 profile": 0.209, "mean distance from KSR1 profile": 2.29}
{"Gene": "ZCCHC4 (zinc finger CCHC-type containing 4)", "mean correlation with KSR1 profile": -0.73, "mean distance from KSR1 profile": 4.57}
{"Gene": "SATB2 (SATB homeobox 2)", "mean correlation with KSR1 profile": -0.718, "mean distance from KSR1 profile": 2.54}
{"Gene": "S100A1 (S100 calcium binding protein A1)", "mean correlation with KSR1 profile": -0.0801, "mean distance from KSR1 profile": 3.49}
{"Gene": "PLIN1 (perilipin 1)", "mean correlation with KSR1 profile": 0.342, "mean distance from KSR1 profile": 1.32}
{"Gene": "CREB3 (cAMP responsive element binding protein 3)", "mean correlation with KSR1 profile": -0.386, "mean distance from KSR1 profile": 3.27}
{"Gene": "ACTN2 (actinin alpha 2)", "mean correlation with KSR1 profile": 0.0439, "mean distance from KSR1 profile": 1.03}
{"Gene": "REN (renin)", "mean correlation with KSR1 profile": 0.503, "mean distance from KSR1 profile": 3.53}
{"Gene": "ST8SIA3 (ST8 alpha-N-acetyl-neuraminide alpha-2,8-sialyltransferase 3)", "mean correlation with KSR1 profile": -0.407, "mean distance from KSR1 profile": 1.94}
{"Gene": "SLTM (SAFB like transcription modulator)", "mean correlation with KSR1 profile": 0.561, "mean distance from KSR1 profile": 1.24}
{"Gene": "DRC3 (dynein regulatory complex subunit 3)", "mean correlation with KSR1 profile": 0.436, "mean distance from KSR1 profile": 1.62}
{"Gene": "THBS3 (thrombospondin 3)", "mean correlation with KSR1 profile": 0.17, "mean distance from KSR1 profile": 2.87}
{"Gene": "MAPRE1 (microtubule associated protein RP/EB family member 1)", "mean correlation with KSR1 profile": 0.484, "mean distance from KSR1 profile": 1.32}
{"Gene": "AFTPH (aftiphilin)", "mean correlation with KSR1 profile": 0.745, "mean distance from KSR1 profile": 0.891}
{"Gene": "GSPT1 (G1 to S phase transition 1)", "mean correlation with KSR1 profile": -0.283, "mean distance from KSR1 profile": 2.49}
{"Gene": "PBX3 (PBX homeobox 3)", "mean correlation with KSR1 profile": -0.203, "mean distance from KSR1 profile": 1.41}
{"Gene": "TCF3 (transcription factor 3)", "mean correlation with KSR1 profile": 0.0328, "mean distance from KSR1 profile": 1.6}
{"Gene": "TCEA2 (transcription elongation factor A2)", "mean correlation with KSR1 profile": -0.013, "mean distance from KSR1 profile": 2.5}
{"Gene": "PRAMEF2 (PRAME family member 2)", "mean correlation with KSR1 profile": -0.124, "mean distance from KSR1 profile": 4.75}
